These are yes or no findings as the source states them, for the method shown. Binding seen in cells or lysates may run through a third protein. Some results given as binding are weak or reduced against the parent protein; the word gives no strength. Sequences can lack the tags named with a protein.
T1: Emc1 tagged with a Venus fragment (PCA strain) (S. cerevisiae) (UniProt P25574)
T1 sequence: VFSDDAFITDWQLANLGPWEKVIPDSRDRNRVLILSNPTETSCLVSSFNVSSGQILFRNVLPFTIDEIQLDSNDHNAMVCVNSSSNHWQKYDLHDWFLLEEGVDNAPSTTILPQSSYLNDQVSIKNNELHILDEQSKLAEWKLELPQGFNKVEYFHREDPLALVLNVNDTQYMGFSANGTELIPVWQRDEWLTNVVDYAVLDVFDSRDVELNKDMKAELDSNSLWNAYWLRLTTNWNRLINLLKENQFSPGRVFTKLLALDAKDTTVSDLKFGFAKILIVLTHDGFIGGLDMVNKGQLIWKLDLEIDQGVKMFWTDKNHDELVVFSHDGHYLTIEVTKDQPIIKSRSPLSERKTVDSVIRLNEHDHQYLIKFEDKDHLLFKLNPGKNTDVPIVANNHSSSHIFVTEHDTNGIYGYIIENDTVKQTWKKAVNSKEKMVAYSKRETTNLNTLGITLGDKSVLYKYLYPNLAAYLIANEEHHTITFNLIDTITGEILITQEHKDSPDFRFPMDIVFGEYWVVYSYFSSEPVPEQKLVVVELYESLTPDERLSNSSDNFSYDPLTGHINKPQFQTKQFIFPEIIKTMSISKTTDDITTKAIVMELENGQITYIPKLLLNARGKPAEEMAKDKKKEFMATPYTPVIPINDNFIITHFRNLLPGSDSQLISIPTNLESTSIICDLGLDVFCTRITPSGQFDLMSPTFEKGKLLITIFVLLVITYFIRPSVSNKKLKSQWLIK

T2: Emc5 fused to GFP (S. cerevisiae) (UniProt P40540)
T2 sequence: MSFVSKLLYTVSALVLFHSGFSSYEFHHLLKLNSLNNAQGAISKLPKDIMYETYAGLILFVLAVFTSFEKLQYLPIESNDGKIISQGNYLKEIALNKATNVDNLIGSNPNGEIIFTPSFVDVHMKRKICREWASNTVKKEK

T3: Emc2 fused to GFP (S. cerevisiae) (UniProt P47133)
T3 sequence: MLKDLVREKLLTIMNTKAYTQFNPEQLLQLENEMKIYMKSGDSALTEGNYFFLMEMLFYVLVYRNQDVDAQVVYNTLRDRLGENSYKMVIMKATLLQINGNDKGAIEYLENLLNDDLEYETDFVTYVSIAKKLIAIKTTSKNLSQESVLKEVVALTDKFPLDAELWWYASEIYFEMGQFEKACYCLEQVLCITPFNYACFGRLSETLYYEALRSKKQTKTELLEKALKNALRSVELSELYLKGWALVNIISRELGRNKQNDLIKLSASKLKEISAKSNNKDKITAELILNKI

T4: Emc1 fused to GFP (S. cerevisiae) (UniProt P25574)
T4 sequence: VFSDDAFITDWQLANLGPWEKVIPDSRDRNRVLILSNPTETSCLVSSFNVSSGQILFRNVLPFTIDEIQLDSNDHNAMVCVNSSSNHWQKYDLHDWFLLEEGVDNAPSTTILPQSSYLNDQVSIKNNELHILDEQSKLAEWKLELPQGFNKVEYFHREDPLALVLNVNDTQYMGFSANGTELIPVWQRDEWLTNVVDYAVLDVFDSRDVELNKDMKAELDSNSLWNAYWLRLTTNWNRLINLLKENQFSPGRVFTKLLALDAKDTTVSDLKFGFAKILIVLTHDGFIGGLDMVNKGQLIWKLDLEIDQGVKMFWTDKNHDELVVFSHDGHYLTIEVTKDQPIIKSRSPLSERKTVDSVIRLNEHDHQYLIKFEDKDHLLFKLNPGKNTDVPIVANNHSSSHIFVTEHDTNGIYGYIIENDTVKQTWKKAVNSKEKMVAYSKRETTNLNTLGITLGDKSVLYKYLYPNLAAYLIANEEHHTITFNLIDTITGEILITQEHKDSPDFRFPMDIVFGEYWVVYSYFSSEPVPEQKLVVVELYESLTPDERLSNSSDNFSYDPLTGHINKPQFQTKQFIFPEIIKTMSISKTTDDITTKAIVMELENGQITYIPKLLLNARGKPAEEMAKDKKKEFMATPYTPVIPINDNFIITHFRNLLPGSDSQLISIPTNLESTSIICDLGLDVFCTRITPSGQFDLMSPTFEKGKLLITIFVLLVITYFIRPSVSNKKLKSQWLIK


Legend:
[1] = molecular target: T1, Emc1 tagged with a Venus fragment (PCA strain) (S. cerevisiae); test: split reporter; Venus–YFP protein-fragment complementation assay (PCA); proteins tagged with VF1 or VF2, strains crossed, haploid meiotic progeny with both alleles; log phase live yeast imaged by confocal microscopy
[2] = molecular target: T2, Emc5 fused to GFP (S. cerevisiae); test: co-IP; lysates (250 mM NaCl, 50 mM Tris-HCl pH 7.4, 0.1% NP-40) of yeast expressing GFP-tagged Emc protein and galactose-induced TAP–Tom5; GFP–Trap_A beads, 1 h at 4°C; blotted with anti-TAP and anti-GFP; TAP–Tom5 repressed in dextrose as control
[3] = molecular target: T3, Emc2 fused to GFP (S. cerevisiae); test: as above
[4] = molecular target: T4, Emc1 fused to GFP (S. cerevisiae); test: as above

Row | binding [1] | binding [2] | binding [3] | binding [4] | Binder
1 | binds | – | – | – | MFGLPQQEVSEEEKRAHQEQTEKTLKQAAYVAAFLWVSPMIWHLVKKQWK (peptide, UniProt P80967 1-50) [Tom5 tagged with VF1 (PCA strain)]
2 | – | binds | binds | binds | MFGLPQQEVSEEEKRAHQEQTEKTLKQAAYVAAFLWVSPMIWHLVKKQWK (peptide, UniProt P80967 1-50) [TAP–Tom5]
